According to patent publication US20210102200A1, “SMALL MOLECULE TARGETED RECRUITMENT OF A NUCLEASE TO RNA” (The Scripps Research Institute, priority 2018, published 2021):
No constants are given. Whether binding was seen depends on the method and setting. Some binding calls cover weakened binding; strength is not graded here. Where a sequence is shown, tags or fusion partners need not be part of it.

Tests used:
Conditions in all cases: remark: other sources report otherwise
[1] = target: T1, RNase L-GST protein, Q05823; assay: in vitro self-oligomerization of RNase L induced by TGP-210-RL; dimethyl suberimidate cross-linking, SDS-PAGE, Western blot
T1 chain: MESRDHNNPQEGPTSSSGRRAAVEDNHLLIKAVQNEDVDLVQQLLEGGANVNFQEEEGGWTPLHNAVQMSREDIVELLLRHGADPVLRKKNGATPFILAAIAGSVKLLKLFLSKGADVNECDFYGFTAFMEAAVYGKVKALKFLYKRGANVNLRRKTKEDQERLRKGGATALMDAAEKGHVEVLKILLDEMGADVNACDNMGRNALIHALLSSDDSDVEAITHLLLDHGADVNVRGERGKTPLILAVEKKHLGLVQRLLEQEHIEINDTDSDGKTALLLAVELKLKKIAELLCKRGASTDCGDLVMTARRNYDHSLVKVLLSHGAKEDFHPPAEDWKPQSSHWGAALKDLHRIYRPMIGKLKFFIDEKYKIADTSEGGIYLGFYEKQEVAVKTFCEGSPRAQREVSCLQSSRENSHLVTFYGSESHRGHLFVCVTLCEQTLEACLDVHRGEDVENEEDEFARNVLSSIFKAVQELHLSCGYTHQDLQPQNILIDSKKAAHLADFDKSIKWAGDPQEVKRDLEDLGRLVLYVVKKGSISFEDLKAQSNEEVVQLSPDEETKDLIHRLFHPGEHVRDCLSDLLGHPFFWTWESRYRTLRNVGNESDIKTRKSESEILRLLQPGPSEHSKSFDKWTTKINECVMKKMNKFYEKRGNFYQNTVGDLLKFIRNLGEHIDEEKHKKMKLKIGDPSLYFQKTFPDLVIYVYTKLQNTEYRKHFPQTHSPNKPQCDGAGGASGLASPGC

[2] = target: T1, RNase L-GST protein, Q05823; assay: in vitro self-oligomerization of RNase L induced by 2'-5'A4 or compound 2; dimethyl suberimidate cross-linking, SDS-PAGE, Western blot
[3] = target: T1, RNase L-GST protein, Q05823; assay: in vitro RNase L oligomerization: RNase L (12 µM aliquot) with 2'-5'A4, 2 or 1b, cross-linked with dimethyl suberimidate, then SDS-PAGE and anti-RNase L Western blot, bands quantified with ImageJ
[4] = target: T1, RNase L-GST protein, Q05823; assay: in vitro RNase L oligomerization: RNase L (3 µM aliquot) with 2'-5' A4, TGP-210 or TGP-210-RL, cross-linked with dimethyl suberimidate, then SDS-PAGE and anti-RNase L Western blot, bands quantified with ImageJ

Measured: binding

B1: RNase L-GST protein, Q05823 1-741 (enzyme, UniProt Q05823 1-741, looked up, not shown: a dimerising Fc or GST)
chain: MESRDHNNPQEGPTSSSGRRAAVEDNHLLIKAVQNEDVDLVQQLLEGGANVNFQEEEGGWTPLHNAVQMSREDIVELLLRHGADPVLRKKNGATPFILAAIAGSVKLLKLFLSKGADVNECDFYGFTAFMEAAVYGKVKALKFLYKRGANVNLRRKTKEDQERLRKGGATALMDAAEKGHVEVLKILLDEMGADVNACDNMGRNALIHALLSSDDSDVEAITHLLLDHGADVNVRGERGKTPLILAVEKKHLGLVQRLLEQEHIEINDTDSDGKTALLLAVELKLKKIAELLCKRGASTDCGDLVMTARRNYDHSLVKVLLSHGAKEDFHPPAEDWKPQSSHWGAALKDLHRIYRPMIGKLKFFIDEKYKIADTSEGGIYLGFYEKQEVAVKTFCEGSPRAQREVSCLQSSRENSHLVTFYGSESHRGHLFVCVTLCEQTLEACLDVHRGEDVENEEDEFARNVLSSIFKAVQELHLSCGYTHQDLQPQNILIDSKKAAHLADFDKSIKWAGDPQEVKRDLEDLGRLVLYVVKKGSISFEDLKAQSNEEVVQLSPDEETKDLIHRLFHPGEHVRDCLSDLLGHPFFWTWESRYRTLRNVGNESDIKTRKSESEILRLLQPGPSEHSKSFDKWTTKINECVMKKMNKFYEKRGNFYQNTVGDLLKFIRNLGEHIDEEKHKKMKLKIGDPSLYFQKTFPDLVIYVYTKLQNTEYRKHFPQTHSPNKPQCDGAGGASGLASPGC
binds: all assays above
